The target of this assay is human CCR2 (human). The assay is described as follows: cell binding, primary human monocytes.

These are yes or no findings as the source states them, for the method shown. Some results given as binding are weak or reduced against the parent protein; the word gives no strength.

B1: DOC2-ChXRKA (antibody, human IgG1, kappa, V domains shown)
VH: EVQLVESGGGLVKPGGSLKLSCVASGFTLSNYAMSWVRQSPEKRLEWVAEVSSSGIYIYYSDTVTGRFSISRDNAKNTLYLEMSSLRSEDTAIYYCARDRYAYAMDYWGHGTSVIVSS
VL: DIVMTQSPDSLAVSLGERATINCKSSQSLLNSYNQKNSLAWYQQKPGQPPKLLIYFASTRESGVPDRFSGSGSGTDFTLTISSLQAEDVAVYYCQQHYSNPRTFGGGTKLEIKR
As for B1, the binding entry is “binds”.

Source of the values: patent publication US20260193365A1 (GRANITE BIO, published 2026).
